Assay results: PMC5788269
These are yes or no findings as the source states them, for the method shown. Binding seen in cells or lysates may run through a third protein. These calls come from enrichment with a bait or labelling near it, and not all partners need be listed. Tags and fused reporters may be left off the sequences shown.

T1: Ref2, TAPS-tagged (native CPF/APT subunit) (yeast) (UniProt P42073)
T1 sequence: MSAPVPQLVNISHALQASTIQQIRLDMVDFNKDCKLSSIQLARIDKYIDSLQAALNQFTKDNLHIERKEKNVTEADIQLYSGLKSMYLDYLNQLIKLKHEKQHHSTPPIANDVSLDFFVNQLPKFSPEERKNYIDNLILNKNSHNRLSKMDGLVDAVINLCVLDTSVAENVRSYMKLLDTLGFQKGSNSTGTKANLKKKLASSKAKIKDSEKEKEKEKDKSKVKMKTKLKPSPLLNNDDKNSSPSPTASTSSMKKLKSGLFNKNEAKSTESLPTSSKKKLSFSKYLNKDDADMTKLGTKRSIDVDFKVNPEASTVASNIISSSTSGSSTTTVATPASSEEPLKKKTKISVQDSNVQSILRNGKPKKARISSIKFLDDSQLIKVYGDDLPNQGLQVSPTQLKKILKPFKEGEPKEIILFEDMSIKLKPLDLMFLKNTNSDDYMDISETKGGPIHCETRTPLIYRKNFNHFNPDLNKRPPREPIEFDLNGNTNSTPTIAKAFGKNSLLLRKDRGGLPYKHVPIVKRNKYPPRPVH

B1: Pti1 (native CPF/APT subunit) (protein, UniProt P39927 1-425)
chain: MTDPRRRTGRHFLTPENLSSTLQITNLPPEWNQDIITSVVAGSGPVIDIKAKNDPRTGKLTGVLFDYLTSKDCKRAWEILNRIENFPVKIEQIIPPNYKDHLRETANKNSQKQVLQLNRDSYPFEAGLELPFEMVTEVPIPRRPPPPQAANNTNSVSNNTNIQFPDILSKASKHLPSFQDGSIIAPDKISQNLSKIPPLQLIEIISNLKILSNQENIQKSQLESFLDTNSDITISVTQALLEMGFIDYSVVTKVLKSQVGEAPSLLSSNNTSNSNTPVSVIRNNTPLHVPSNEVSNNPNNMPLNVAMPMPMSTPPFIPLPLQQQPFGFAPPGPFMPPAQGPSMGQPVLANQLGQVQQQNISSTEGPSNANKANDSGTINMAKLQLLPENQQDMIKQVLTLTPAQIQSLPSDQQLMVENFRKEYII
B2: Swd2 (native CPF/APT subunit) (protein, UniProt P36104 1-329)
chain: MTTVSINKPNLLKFKHVKSFQPQEKDCGPVTSLNFDDNGQFLLTSSSNDTMQLYSATNCKFLDTIASKKYGCHSAIFTHAQNECIYSSTMKNFDIKYLNLETNQYLRYFSGHGALVNDLKMNPVNDTFLSSSYDESVRLWDLKISKPQVIIPSLVPNCIAYDPSGLVFALGNPENFEIGLYNLKKIQEGPFLIIKINDATFSQWNKLEFSNNGKYLLVGSSIGKHLIFDAFTGQQLFELIGTRAFPMREFLDSGSACFTPDGEFVLGTDYDGRIAIWNHSDSISNKVLRPQGFIPCVSHETCPRSIAFNPKYSMFVTADETVDFYVYDE
B3: Syc1 (native APT subunit) (protein, UniProt Q08553 1-188)
chain: MDLPKDKSDRTHQRINLNNSGTDRTNDLYLHIVQTFGCIETTATENATKLLMLGDVEVEISASSVSIEWTQKSMISQTIADSIVIMIIGLCASDKNVLSESELKERNHNVWKIQELQNLFREQFGDSFSIDEGIGKKENVKNGSVTIGKSKATIDFSTMKLIDCNSNPLKGRVESILSIGQKLTTPLC

Each binder was assayed against T1, Ref2, TAPS-tagged (native CPF/APT subunit) (yeast) (assay: affinity purification with mass spectrometry; native CPF/APT purified by a tandem affinity purification tag from a yeast strain containing TAPS-tagged Ref2; Coomassie SDS-PAGE; composition analysed by noncovalent nanoESI-MS).

binding, binds:
B1
B2
B3
